The structures appear in SMILES notation.

Data on eight compounds can be found in patent US20080022467A1, “Disazo dyes and their preparation and use” (ILFORD Imaging Switzerland GmbH, priority 2006, published 2008).

A short description of data set [1]: Color saturation C* of printed patches. Also noted: key: A: excellent; B: good; C: satisfactory; D: unsatisfactory. As to conditions: for Color Saturation C* (Class) on Recording Sheet A: A: HP Printing Paper HPP 1122 (paper); for Color Saturation C* (Class) on Recording Sheet B: B: HP Premium Plus (polymer based); for Color Saturation C* (Class) on Recording Sheet C: C: ILFORD Galerie Smooth Glossy (nanoporous); for Color Saturation C* (Class) on Recording Sheet D: D: ILFORD Printasia Premium Photo Glossy Paper (nanoporous); for Color Saturation C* (Class) on Recording Sheet E: E: ILFORD Galerie Classic Gloss Paper (polymer based); for Color Saturation C* (Class) on Recording Sheet F: F: EPSON Premium Glossy Photo Paper (nanoporous); for Color Saturation C* (Class) on Recording Sheet G: G: CANON Photo Paper Pro PR-101 (nanoporous).

Data set [2] in a line: Dye diffusion of printed grid patches on storage. Set-up: key: A: excellent; B: good; C: satisfactory; D: unsatisfactory. As to conditions: 7 days, 40° C., 80% relative humidity; for Dye Diffusion (Class) on Recording Sheet A: A: HP Printing Paper HPP 1122 (paper); for Dye Diffusion (Class) on Recording Sheet B: B: HP Premium Plus (polymer based); for Dye Diffusion (Class) on Recording Sheet C: C: ILFORD Galerie Smooth Glossy (nanoporous); for Dye Diffusion (Class) on Recording Sheet D: D: ILFORD Printasia Premium Photo Glossy Paper (nanoporous); for Dye Diffusion (Class) on Recording Sheet E: E: ILFORD Galerie Classic Gloss Paper (polymer based); for Dye Diffusion (Class) on Recording Sheet F: F: EPSON Premium Glossy Photo Paper (nanoporous); for Dye Diffusion (Class) on Recording Sheet G: G: CANON Photo Paper Pro PR-101 (nanoporous).

In the case of `O=S(=O)([O-])CCCSc1nc(Nc2ccc(N=Nc3cc(S(=O)(=O)[O-])c4cccc(S(=O)(=O)[O-])c4c3)cc2)nc(Nc2ccc(N=Nc3cc(S(=O)(=O)[O-])c4cccc(S(=O)(=O)[O-])c4c3)cc2)n1.[Na+].[Na+].[Na+].[Na+].[Na+]` [Dye No. 10], in data set [1], the “Color Saturation C* (Class) on Recording Sheet A” value is given as “A”, the “Color Saturation C* (Class) on Recording Sheet B” value is listed as “A”, the “Color Saturation C* (Class) on Recording Sheet C” value is on record as “A” and the “Color Saturation C* (Class) on Recording Sheet D” value was “A”. In data set [1], the “Color Saturation C* (Class) on Recording Sheet E” value was “A”, the “Color Saturation C* (Class) on Recording Sheet F” value is reported as “A” and the “Color Saturation C* (Class) on Recording Sheet G” value is on record as “A”. For the same compound, in data set [2], the “Dye Diffusion (Class) on Recording Sheet A” value was “A”, the “Dye Diffusion (Class) on Recording Sheet B” value is listed as “C”, the “Dye Diffusion (Class) on Recording Sheet C” value is reported as “B” and the “Dye Diffusion (Class) on Recording Sheet D” value was “B”. Besides, in data set [2], the “Dye Diffusion (Class) on Recording Sheet E” value is listed as “A”, the “Dye Diffusion (Class) on Recording Sheet F” value is recorded as “A” and the “Dye Diffusion (Class) on Recording Sheet G” value is listed as “A”.

Turning to `O=S(=O)([O-])CCNc1nc(Nc2ccc(N=Nc3cc(S(=O)(=O)[O-])c4cccc(S(=O)(=O)[O-])c4c3)cc2)nc(Nc2ccc(N=Nc3cc(S(=O)(=O)[O-])c4cccc(S(=O)(=O)[O-])c4c3)cc2)n1.[Na+].[Na+].[Na+].[Na+].[Na+]` [Dye No. 11], in data set [1], the “Color Saturation C* (Class) on Recording Sheet A” value is recorded as “A”, the “Color Saturation C* (Class) on Recording Sheet B” value is “A”, the “Color Saturation C* (Class) on Recording Sheet C” value is recorded as “A” and the “Color Saturation C* (Class) on Recording Sheet D” value is recorded as “A”. In addition, in data set [1], the “Color Saturation C* (Class) on Recording Sheet E” value is reported as “A”, the “Color Saturation C* (Class) on Recording Sheet F” value was “A” and the “Color Saturation C* (Class) on Recording Sheet G” value is listed as “A”. Besides, in data set [2], the “Dye Diffusion (Class) on Recording Sheet A” value was “A”, the “Dye Diffusion (Class) on Recording Sheet B” value is listed as “B”, the “Dye Diffusion (Class) on Recording Sheet C” value is recorded as “B” and the “Dye Diffusion (Class) on Recording Sheet D” value is on record as “A”. For the same compound, in data set [2], the “Dye Diffusion (Class) on Recording Sheet E” value is reported as “A”, the “Dye Diffusion (Class) on Recording Sheet F” value was “A” and the “Dye Diffusion (Class) on Recording Sheet G” value is “A”.

`CN(CCS(=O)(=O)[O-])c1nc(Nc2ccc(N=Nc3cc(S(=O)(=O)[O-])c4cccc(S(=O)(=O)[O-])c4c3)cc2)nc(Nc2ccc(N=Nc3cc(S(=O)(=O)[O-])c4cccc(S(=O)(=O)[O-])c4c3)cc2)n1.[Na+].[Na+].[Na+].[Na+].[Na+]` [Dye No. 14]: in data set [1], the “Color Saturation C* (Class) on Recording Sheet A” value is reported as “A”, the “Color Saturation C* (Class) on Recording Sheet B” value is recorded as “A”, the “Color Saturation C* (Class) on Recording Sheet C” value is on record as “A” and the “Color Saturation C* (Class) on Recording Sheet D” value is reported as “A”. For the same compound, in data set [1], the “Color Saturation C* (Class) on Recording Sheet E” value is reported as “A”, the “Color Saturation C* (Class) on Recording Sheet F” value is reported as “A” and the “Color Saturation C* (Class) on Recording Sheet G” value was “A”. For the same compound, in data set [2], the “Dye Diffusion (Class) on Recording Sheet A” value is given as “A”, the “Dye Diffusion (Class) on Recording Sheet B” value is “B”, the “Dye Diffusion (Class) on Recording Sheet C” value is “B” and the “Dye Diffusion (Class) on Recording Sheet D” value is “A”. Besides, in data set [2], the “Dye Diffusion (Class) on Recording Sheet E” value is reported as “B”, the “Dye Diffusion (Class) on Recording Sheet F” value is “A” and the “Dye Diffusion (Class) on Recording Sheet G” value is on record as “A”.

`O=S(=O)([O-])CCCSc1nc(Nc2ccc(N=Nc3ccc4cc(S(=O)(=O)[O-])cc(S(=O)(=O)[O-])c4c3)cc2)nc(Nc2ccc(N=Nc3ccc4cc(S(=O)(=O)[O-])cc(S(=O)(=O)[O-])c4c3)cc2)n1.[Na+].[Na+].[Na+].[Na+].[Na+]` [Dye No. 15]: in data set [1], the “Color Saturation C* (Class) on Recording Sheet A” value was “B”, the “Color Saturation C* (Class) on Recording Sheet B” value is on record as “B”, the “Color Saturation C* (Class) on Recording Sheet C” value is “B” and the “Color Saturation C* (Class) on Recording Sheet D” value is listed as “B”. For the same compound, in data set [1], the “Color Saturation C* (Class) on Recording Sheet E” value is listed as “C”, the “Color Saturation C* (Class) on Recording Sheet F” value is on record as “B” and the “Color Saturation C* (Class) on Recording Sheet G” value is reported as “B”. In addition, in data set [2], the “Dye Diffusion (Class) on Recording Sheet A” value was “A”, the “Dye Diffusion (Class) on Recording Sheet B” value is given as “C”, the “Dye Diffusion (Class) on Recording Sheet C” value is given as “C” and the “Dye Diffusion (Class) on Recording Sheet D” value is given as “B”. For the same compound, in data set [2], the “Dye Diffusion (Class) on Recording Sheet E” value was “B”, the “Dye Diffusion (Class) on Recording Sheet F” value is listed as “B” and the “Dye Diffusion (Class) on Recording Sheet G” value is listed as “B”.

Consider `O=S(=O)([O-])CCNc1nc(Nc2ccc(N=Nc3ccc4cc(S(=O)(=O)[O-])cc(S(=O)(=O)[O-])c4c3)cc2)nc(Nc2ccc(N=Nc3ccc4cc(S(=O)(=O)[O-])cc(S(=O)(=O)[O-])c4c3)cc2)n1.[Na+].[Na+].[Na+].[Na+].[Na+]` [Dye No. 16], for which, in data set [1], the “Color Saturation C* (Class) on Recording Sheet A” value is listed as “C”, the “Color Saturation C* (Class) on Recording Sheet B” value was “B”, the “Color Saturation C* (Class) on Recording Sheet C” value is recorded as “A” and the “Color Saturation C* (Class) on Recording Sheet D” value was “B”. In data set [1], the “Color Saturation C* (Class) on Recording Sheet E” value is reported as “C”, the “Color Saturation C* (Class) on Recording Sheet F” value is given as “A” and the “Color Saturation C* (Class) on Recording Sheet G” value is reported as “B”. In data set [2], the “Dye Diffusion (Class) on Recording Sheet A” value was “A”, the “Dye Diffusion (Class) on Recording Sheet B” value was “C”, the “Dye Diffusion (Class) on Recording Sheet C” value is recorded as “A” and the “Dye Diffusion (Class) on Recording Sheet D” value is recorded as “A”. Besides, in data set [2], the “Dye Diffusion (Class) on Recording Sheet E” value is listed as “B”, the “Dye Diffusion (Class) on Recording Sheet F” value is “A” and the “Dye Diffusion (Class) on Recording Sheet G” value is listed as “A”.

Consider `CN(CCS(=O)(=O)[O-])c1nc(Nc2ccc(N=Nc3ccc4cc(S(=O)(=O)[O-])cc(S(=O)(=O)[O-])c4c3)cc2)nc(Nc2ccc(N=Nc3ccc4cc(S(=O)(=O)[O-])cc(S(=O)(=O)[O-])c4c3)cc2)n1.[Na+].[Na+].[Na+].[Na+].[Na+]` [Dye No. 17], for which, in data set [1], the “Color Saturation C* (Class) on Recording Sheet A” value is “D”, the “Color Saturation C* (Class) on Recording Sheet B” value is “B”, the “Color Saturation C* (Class) on Recording Sheet C” value is given as “A” and the “Color Saturation C* (Class) on Recording Sheet D” value is “C”. Besides, in data set [1], the “Color Saturation C* (Class) on Recording Sheet E” value is “C”, the “Color Saturation C* (Class) on Recording Sheet F” value is given as “B” and the “Color Saturation C* (Class) on Recording Sheet G” value is reported as “B”. In addition, in data set [2], the “Dye Diffusion (Class) on Recording Sheet A” value is “A”, the “Dye Diffusion (Class) on Recording Sheet B” value is given as “C”, the “Dye Diffusion (Class) on Recording Sheet C” value is given as “B” and the “Dye Diffusion (Class) on Recording Sheet D” value was “A”. Further, in data set [2], the “Dye Diffusion (Class) on Recording Sheet E” value is given as “B”, the “Dye Diffusion (Class) on Recording Sheet F” value is listed as “B” and the “Dye Diffusion (Class) on Recording Sheet G” value was “B”.

Regarding `O=C([O-])c1cc(Nc2nc(Nc3ccc(N=Nc4cc(S(=O)(=O)[O-])c5cccc(S(=O)(=O)[O-])c5c4)cc3)nc(Nc3ccc(N=Nc4cc(S(=O)(=O)[O-])c5cccc(S(=O)(=O)[O-])c5c4)cc3)n2)cc(C(=O)[O-])c1.[Na+].[Na+].[Na+].[Na+].[Na+].[Na+]` [Dye No. 18], in data set [1], the “Color Saturation C* (Class) on Recording Sheet A” value is reported as “C”, the “Color Saturation C* (Class) on Recording Sheet B” value was “A”, the “Color Saturation C* (Class) on Recording Sheet C” value was “A” and the “Color Saturation C* (Class) on Recording Sheet D” value is listed as “A”. In addition, in data set [1], the “Color Saturation C* (Class) on Recording Sheet E” value is reported as “A”, the “Color Saturation C* (Class) on Recording Sheet F” value is listed as “A” and the “Color Saturation C* (Class) on Recording Sheet G” value is listed as “A”. In data set [2], the “Dye Diffusion (Class) on Recording Sheet A” value is “A”, the “Dye Diffusion (Class) on Recording Sheet B” value is “C”, the “Dye Diffusion (Class) on Recording Sheet C” value is listed as “B” and the “Dye Diffusion (Class) on Recording Sheet D” value is on record as “A”. Moreover, in data set [2], the “Dye Diffusion (Class) on Recording Sheet E” value was “A”, the “Dye Diffusion (Class) on Recording Sheet F” value is “A” and the “Dye Diffusion (Class) on Recording Sheet G” value is recorded as “A”.

Regarding `O=S(=O)([O-])c1cc(/N=N/c2ccc(Nc3nc(NCCO)nc(Nc4ccc(/N=N/c5cc(S(=O)(=O)[O-])c6cccc(S(=O)(=O)[O-])c6c5)cc4)n3)cc2)cc2c(S(=O)(=O)[O-])cccc12.[Na+].[Na+].[Na+].[Na+]` [Dye No. I, reference compound], in data set [1], the “Color Saturation C* (Class) on Recording Sheet A” value is given as “B”, the “Color Saturation C* (Class) on Recording Sheet B” value is listed as “A”, the “Color Saturation C* (Class) on Recording Sheet C” value was “A” and the “Color Saturation C* (Class) on Recording Sheet D” value was “A”. For the same compound, in data set [1], the “Color Saturation C* (Class) on Recording Sheet E” value is given as “A”, the “Color Saturation C* (Class) on Recording Sheet F” value was “A” and the “Color Saturation C* (Class) on Recording Sheet G” value is reported as “A”. Further, in data set [2], the “Dye Diffusion (Class) on Recording Sheet A” value is “B”, the “Dye Diffusion (Class) on Recording Sheet B” value is “C”, the “Dye Diffusion (Class) on Recording Sheet C” value is listed as “C” and the “Dye Diffusion (Class) on Recording Sheet D” value was “A”. Further, in data set [2], the “Dye Diffusion (Class) on Recording Sheet E” value was “C”, the “Dye Diffusion (Class) on Recording Sheet F” value is “C” and the “Dye Diffusion (Class) on Recording Sheet G” value is “A”.
